Data as given in PubChem BioAssay AID1259405 (NCATS, 2018).

Screen: 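Knock-downs that lift recombinant protein yield in hamster ovary cells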 (primary screen)
Cells: Chinese hamster CHO-K1 ovary cells with stable secreted eGFP expression
Reagents: single siRNA against mouse genes, 0.8 pmol siRNA per well (2 µl of 400 nM stock)
Time to read-out: 3 days
Detection: 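Percent of the per-plate non-targeting control median for intracellular GFP per well by laser scanning cytometry and for cell viability by ATP luminescence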
Reading the numbers: GFP, % of control: higher = more GFP per well, higher productivity; viability (ATP), % of control: higher = more viable cells (more ATP)
Active means: 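a knock-down is called active if GFP reaches 120% or more of non-targeting control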
Here is one part, drawn at random, of about 50,000 reagents. In the full data, about 4,000 (8%) were called active. 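Mouse siRNA library applied to hamster cells; one well for each siRNA.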 The numbers tell different reagents against one gene apart.

no.	gene	siRNA no.	GFP, % of control	viability (ATP), % of control	call
1	Grpel2 (GeneID 17714)	1	38.6	50.7	inactive
2	Grpel2 (GeneID 17714)	2	77.8	93.9	inactive
3	Grpel2 (GeneID 17714)	3	91.4	129	inactive
4	Casp8ap2 (GeneID 26885)	1	50.4	47.6	inactive
5	Casp8ap2 (GeneID 26885)	2	65.5	77.2	inactive
6	Casp8ap2 (GeneID 26885)	3	110	90.1	inactive
7	Aga (GeneID 11593)	1	116	123	inactive
8	Aga (GeneID 11593)	2	79.7	83.4	inactive
9	Aga (GeneID 11593)	3	242	176	active
10	Lysmd1 (GeneID 217779)	1	86.7	90.4	inactive
11	Lysmd1 (GeneID 217779)	2	35.3	43.8	inactive
12	Lysmd1 (GeneID 217779)	3	102	82.7	inactive
13	Slc38a8 (GeneID 234788)	1	63.8	68.2	inactive
14	Slc38a8 (GeneID 234788)	2	185	131	active
15	Slc38a8 (GeneID 234788)	3	54.3	71.7	inactive
16	Mafb (GeneID 16658)	1	56.6	62.3	inactive
17	Mafb (GeneID 16658)	2	71.9	83.9	inactive
18	Mafb (GeneID 16658)	3	76.8	59.4	inactive
19	Zcchc13 (GeneID 75064)	1	25.5	66.1	inactive
20	Zcchc13 (GeneID 75064)	2	83.9	81.2	inactive
21	Zcchc13 (GeneID 75064)	3	44.9	52.1	inactive
22	Ypel4 (GeneID 241525)	1	33	49.5	inactive
23	Ypel4 (GeneID 241525)	2	46.2	59.3	inactive
24	Ypel4 (GeneID 241525)	3	67.3	79.3	inactive
25	Bbx (GeneID 70508)	1	148	74.7	active
26	Bbx (GeneID 70508)	2	111	86.3	inactive
27	Bbx (GeneID 70508)	3	32.1	34.9	inactive
28	Bbx (GeneID 70508)	4	89	86.2	inactive
29	Bbx (GeneID 70508)	5	122	68.3	active
30	Bbx (GeneID 70508)	6	78.1	56.4	inactive
31	Tlr11 (GeneID 239081)	1	121	92	active
32	Tlr11 (GeneID 239081)	2	57.9	61.4	inactive
33	Tlr11 (GeneID 239081)	3	73.4	65.7	inactive
34	Capns1 (GeneID 12336)	1	74.6	94.3	inactive
35	Capns1 (GeneID 12336)	2	45.5	33.7	inactive
36	Capns1 (GeneID 12336)	3	72.1	74.4	inactive
37	Cavin4 (GeneID 68016)	1	32.4	36.9	inactive
38	Cavin4 (GeneID 68016)	2	87.7	81.9	inactive
39	Cavin4 (GeneID 68016)	3	70.4	68.1	inactive
40	Txnl1 (GeneID 53382)	1	64.8	53.5	inactive
41	Txnl1 (GeneID 53382)	2	70.1	62.9	inactive
42	Txnl1 (GeneID 53382)	3	21.4	24.7	inactive
43	Capn11 (GeneID 268958)	1	126	51.5	active
44	Capn11 (GeneID 268958)	2	30.3	34.4	inactive
45	Capn11 (GeneID 268958)	3	70.7	55.2	inactive
46	Arid4a (GeneID 238247)	1	57.5	147	inactive
47	Arid4a (GeneID 238247)	2	74.4	70.2	inactive
48	Arid4a (GeneID 238247)	3	92.7	87.1	inactive
49	Psmc1 (GeneID 19179)	1	91.8	90.1	inactive
50	Psmc1 (GeneID 19179)	2	110	103	inactive
51	Psmc1 (GeneID 19179)	3	32.4	9.13	inactive
52	Ros1 (GeneID 19886)	1	86.2	89.9	inactive

Only “viability (ATP), % of control”, for 13 of the entries above:
Lysmd1 (GeneID 217779) #3	82.7
Slc38a8 (GeneID 234788) #1	68.2
Slc38a8 (GeneID 234788) #2	131
Slc38a8 (GeneID 234788) #3	71.7
Mafb (GeneID 16658) #1	62.3
Mafb (GeneID 16658) #2	83.9
Mafb (GeneID 16658) #3	59.4
Zcchc13 (GeneID 75064) #1	66.1
Zcchc13 (GeneID 75064) #2	81.2
Zcchc13 (GeneID 75064) #3	52.1
Ypel4 (GeneID 241525) #1	49.5
Ypel4 (GeneID 241525) #2	59.3
Ypel4 (GeneID 241525) #3	79.3

Further reagents follow:
no.	gene	siRNA no.	GFP, % of control	viability (ATP), % of control	call
53	Id1 (GeneID 15901)	1	51.1	29	inactive
54	Id1 (GeneID 15901)	2	65	56	inactive
55	Id1 (GeneID 15901)	3	82.9	86.7	inactive
56	Commd1 (GeneID 17846)	1	80.8	102	inactive
57	Commd1 (GeneID 17846)	2	54.5	79.4	inactive
58	Commd1 (GeneID 17846)	3	96	108	inactive
59	Phxr4 (GeneID 18689)	1	117	84.6	inactive
60	Phxr4 (GeneID 18689)	2	96.1	61.2	inactive
61	Phxr4 (GeneID 18689)	3	79.3	66.1	inactive
62	Fmo4 (GeneID 226564)	1	70.8	73	inactive
63	Fmo4 (GeneID 226564)	2	61	43.5	inactive
64	Fmo4 (GeneID 226564)	3	133	106	active
65	Aoah (GeneID 27052)	1	123	142	active
66	Aoah (GeneID 27052)	2	65.5	76.4	inactive
67	Tamalin (GeneID 56149)	1	60.6	74.7	inactive
68	Tamalin (GeneID 56149)	2	61.7	57.5	inactive
69	Tamalin (GeneID 56149)	3	65.4	67.2	inactive
70	Ezh2 (GeneID 14056)	1	64.5	69.5	inactive
71	Ezh2 (GeneID 14056)	2	74.3	80	inactive
72	Ezh2 (GeneID 14056)	3	33.4	65.4	inactive
73	Vmn1r56 (GeneID 81015)	1	71.7	60.2	inactive
74	Vmn1r56 (GeneID 81015)	2	75.5	58.9	inactive
75	Vmn1r56 (GeneID 81015)	3	62.2	70.1	inactive
76	Duxbl1 (GeneID 278672)	1	60.6	94.7	inactive
77	Duxbl1 (GeneID 278672)	2	79.1	84.5	inactive
78	Duxbl1 (GeneID 278672)	3	57.5	37	inactive
79	Saa2 (GeneID 20209)	1	68.3	34.5	inactive
80	Saa2 (GeneID 20209)	2	78.5	53	inactive
81	Saa2 (GeneID 20209)	3	89.9	89.1	inactive
82	Heatr3 (GeneID 234549)	1	38	68.1	inactive
83	Heatr3 (GeneID 234549)	2	73.8	74.7	inactive
84	Heatr3 (GeneID 234549)	3	153	129	active
85	Ehd3 (GeneID 57440)	1	50.5	51.3	inactive
86	Ehd3 (GeneID 57440)	2	93	104	inactive
87	Ehd3 (GeneID 57440)	3	64.5	54.8	inactive
88	Baz1a (GeneID 217578)	1	90.5	66.7	inactive
89	Baz1a (GeneID 217578)	2	61.7	88.4	inactive
90	Baz1a (GeneID 217578)	3	68.7	79.3	inactive
91	Slc25a30 (GeneID 67554)	1	74.6	64.8	inactive
92	Slc25a30 (GeneID 67554)	2	140	112	active
93	Slc25a30 (GeneID 67554)	3	85.2	63.5	inactive
94	Glt8d1 (GeneID 76485)	1	143	78.6	active
95	Glt8d1 (GeneID 76485)	2	36.7	65.9	inactive
96	Glt8d1 (GeneID 76485)	3	83.5	81	inactive
97	Tnfrsf11b (GeneID 18383)	1	86	75.4	inactive
98	Tnfrsf11b (GeneID 18383)	2	65.9	47.1	inactive
99	Tnfrsf11b (GeneID 18383)	3	65	52.1	inactive
100	Megf9 (GeneID 230316)	1	89	85.3	inactive
101	Megf9 (GeneID 230316)	2	66.9	67.7	inactive
102	Tspan18 (GeneID 241556)	1	46.8	28.6	inactive
103	Tspan18 (GeneID 241556)	2	64.4	91	inactive
104	Tspan18 (GeneID 241556)	3	143	146	active
105	H60a (GeneID 15101)	1	72	51.8	inactive
106	H60a (GeneID 15101)	2	48.9	49	inactive
107	H60a (GeneID 15101)	3	58.9	69.1	inactive
